Data from the primary screen of doi:10.1371/journal.pone.0140310, rounded.

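Human melanoma cells were exposed to a pair of drugs for 72 h in 1,536-well plates and read by automated microscopy after fixing and staining. Values are the number of DAPI-stained nuclei as a percentage of the DMSO control: 100 is no effect, lower means fewer cells. Concentrations were fixed for each drug; these are the lower of two levels, a fifth of the higher. The file gives one value for each pair and line, without errors, so small differences may be noise.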 This is part of the screen, not chosen by result. A dash means that no value is listed here.

Compounds and concentrations:
AZD7762 (20 nM): NC(=O)Nc1cc(-c2cccc(F)c2)sc1C(=O)N[C@H]1CCCNC1
JZL184 (1000 nM): O=C(Oc1ccc([N+](=O)[O-])cc1)N1CCC(C(O)(c2ccc3c(c2)OCO3)c2ccc3c(c2)OCO3)CC1
tipifarnib (10 nM): Cn1cncc1[C@@](N)(c1ccc(Cl)cc1)c1ccc2c(c1)c(-c1cccc(Cl)c1)cc(=O)n2C
nilutamide (1000 nM): CC1(C)NC(=O)N(c2ccc([N+](=O)[O-])c(C(F)(F)F)c2)C1=O
XAV939 (2000 nM): Oc1nc(-c2ccc(C(F)(F)F)cc2)nc2c1CSCC2
LFM-A13 (2000 nM): C/C(O)=C(\C#N)C(=O)Nc1cc(Br)ccc1Br
SNS-032 (10 nM): CC(C)(C)c1cnc(CSc2cnc(NC(=O)C3CCNCC3)s2)o1
A-769662 (2000 nM): N#Cc1c(O)c2c(-c3ccc(-c4ccccc4O)cc3)csc2[nH]c1=O
L-779450 (200 nM): Oc1cc(-c2nc(-c3ccccc3)[nH]c2-c2ccncc2)ccc1Cl
gemcitabine (0.4 nM): Nc1ccn([C@@H]2O[C@H](CO)[C@@H](O)C2(F)F)c(=O)n1
OSU-03012 (1000 nM): NCC(=O)Nc1ccc(-n2nc(C(F)(F)F)cc2-c2ccc3c(ccc4ccccc43)c2)cc1
bortezomib (1 nM): CC(C)C[C@H](NC(=O)[C@H](Cc1ccccc1)NC(=O)c1cnccn1)B(O)O
embelin (1200 nM): CCCCCCCCCCCC1=C(O)C(=O)C=C(O)C1=O
STA-4783 (6 nM): CN(NC(=O)CC(=O)NN(C)C(=S)c1ccccc1)C(=S)c1ccccc1

Drugs	COLO 829	A2058	501mel	C32	IST-MEL1	COLO 800	LOX IMVI	A375	G-361
JZL184 + STA-4783	73.4	81.9	58.4	86.4	65.0	42.3	54.8	36.6	84.9
LFM-A13 + OSU-03012	60.1	96.3	34.5	102	89.9	85.3	82.5	10.8	84.7
JZL184 + gemcitabine	87.9	94.2	82.5	111	77.9	65.3	82.4	-	85.8
SNS-032 + XAV939	78.5	82.9	114	89.9	95.3	97.8	74.6	104	78.7
STA-4783 + XAV939	73.9	69.4	64.9	94.1	81.9	54.3	92.0	29.1	75.6
gemcitabine + nilutamide	91.2	100	-	86.8	72.3	75.6	114	117	84.1
AZD7762 + JZL184	97.0	109	95.1	111	105	122	95.9	57.2	106
AZD7762 + LFM-A13	105	102	92.2	109	121	62.6	221	58.6	112
XAV939 + nilutamide	103	94.4	84.6	106	99.7	112	81.9	97.5	84.0
gemcitabine + L-779450	113	90.9	59.9	97.4	66.9	57.2	99.0	-	84.2
bortezomib + XAV939	102	76.6	99.1	83.3	96.8	90.8	128	-	79.6
A-769662 + SNS-032	117	90.7	110	99.2	96.0	97.7	74.1	107	125
JZL184 + SNS-032	91.6	98.0	97.1	84.9	103	92.1	87.3	90.6	85.5
L-779450 + STA-4783	78.3	67.1	62.2	63.7	88.0	48.8	103	15.6	80.1
AZD7762 + L-779450	103	123	86.1	91.5	110	87.2	91.7	47.0	95.9
XAV939 + AZD7762	101	106	120	114	121	68.9	89.7	49.3	96.3
JZL184 + nilutamide	86.6	109	102	110	114	96.7	100	105	103
LFM-A13 + STA-4783	57.6	54.5	35.8	86.0	85.5	44.0	63.2	19.8	72.1
OSU-03012 + L-779450	103	89.0	46.8	83.9	88.7	90.8	85.1	21.2	92.7
AZD7762 + bortezomib	80.8	109	-	93.7	107	114	61.3	78.4	8.8
nilutamide + L-779450	109	111	65.8	87.1	96.2	68.3	115	97.5	84.0
A-769662 + nilutamide	82.4	93.9	100	104	103	105	129	109	110
bortezomib + embelin	122	104	84.0	107	111	156	135	-	97.3
SNS-032 + embelin	106	104	117	88.9	110	98.5	141	97.6	106
JZL184 + OSU-03012	85.5	102	78.3	106	98.0	107	61.5	22.8	122
LFM-A13 + A-769662	87.7	95.7	93.9	101	94.0	107	121	108	99.2
OSU-03012 + A-769662	73.9	110	37.5	97.4	87.8	101	69.8	19.6	111
LFM-A13 + gemcitabine	63.4	103	80.9	113	75.4	88.2	86.4	-	94.3
L-779450 + bortezomib	75.1	100	42.0	96.9	98.6	76.2	91.6	-	14.0
OSU-03012 + embelin	68.6	107	116	99.6	103	77.3	95.6	108	95.6
gemcitabine + tipifarnib	86.3	91.7	-	95.4	77.1	82.3	76.6	96.4	86.7
JZL184 + embelin	86.2	93.8	91.5	104	101	126	136	96.5	97.1
gemcitabine + SNS-032	93.5	99.1	-	88.7	70.0	63.2	58.6	103	93.2
OSU-03012 + XAV939	86.7	-	-	90.8	97.7	83.5	111	-	82.1
A-769662 + STA-4783	60.6	55.5	-	76.4	63.5	29.4	163	28.7	84.1
tipifarnib + XAV939	109	87.6	95.5	81.9	100	77.4	83.9	76.9	86.4
gemcitabine + OSU-03012	76.9	100	-	120	73.6	93.1	64.7	16.1	101
tipifarnib + A-769662	85.9	92.5	87.4	71.8	98.4	60.8	101	80.7	91.4
A-769662 + bortezomib	56.7	81.7	35.5	84.7	86.7	71.0	74.9	-	6.7

Once more, the final 2:

Drugs	COLO 829	A2058	501mel	C32	IST-MEL1	COLO 800	LOX IMVI	A375	G-361
tipifarnib + A-769662	85.9	92.5	87.4	71.8	98.4	60.8	101	80.7	91.4
A-769662 + bortezomib	56.7	81.7	35.5	84.7	86.7	71.0	74.9	-	6.7